Results are given in words; binding and its absence hold for the method and conditions named. Some results given as binding are weak or reduced against the parent protein; the word gives no strength.
Biological target: T1, human IL-17E (human, UniProt Q9H293 33-177)
T1 construct: also called hIL17-E; IL-25
T1 sequence (looked up): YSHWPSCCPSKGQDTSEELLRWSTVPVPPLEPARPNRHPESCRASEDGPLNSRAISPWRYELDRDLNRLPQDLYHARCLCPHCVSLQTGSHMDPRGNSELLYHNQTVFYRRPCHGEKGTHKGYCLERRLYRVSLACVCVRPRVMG
Assay: binding assay; the sentence refers to Table 1

binding: binds
Binder: ACGYDYYCALYDICA (Ci, Cii and Ciii cyclised with TBMB) [BCY2240 [A-(SEQ ID NO: 56)-A]]

Source: patent US20220024983A1, “BICYCLIC PEPTIDE LIGANDS SPECIFIC FOR IL-17” (BicycleRD Limited, priority 2018, published 2022)
